Experimental data as given in the supplement of paper PMC6078165.
± gives the standard deviation of the averaged measurements. The reference is the same well before dosing, and untreated signal decays as well.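 Labels refer to human fibroblasts, largely primary: uterine (C12385, HUF), lung (H6013), bone (Hs27A), adrenal (HADF), skin (WS1), plus mammary HMF and breast cancer-associated Hs343T. Cancer lines are basal-like or mesenchymal-like triple-negative breast cancer. The paper counts as hits responses shifting over 3x the replicate standard deviation. The tissue of the other fibroblasts is not given here.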

System: HCC1143
Test: relative JC-1 red fluorescence (viability) vs pre-drug, coculture with fibroblast (fraction); higher = more viable cancer cells
Procedure: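 JC-1 labelled TNBC cells cocultured 1:1 (1,500 cells each) with CellTrace Violet stained primary or stromal fibroblasts in 384-well plates in FluoroBrite medium, treated with one of 42 anticancer drugs at 0.1, 1, 10 or 100 uM. JC-1 red fluorescence (mitochondrial integrity in cancer cells only) was read by plate reader every 8 h for 72 h. Values are normalised to each well's pre-drug value. The stock of one drug was tenfold lower, so its dose labels may be too high.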

N.N.[Cl][Pt][Cl] [Cisplatin]
relative JC-1 red fluorescence
Conditions | 8 h | 16 h | 24 h | 32 h | 40 h | 48 h | 56 h | 64 h | 72 h
0.1 µM, coculture fibroblast: C12385 | 0.8258 ± 0.0063 | 0.769 ± 0.016 | 0.713 ± 0.0079 | 0.647 ± 0.0065 | 0.5913 ± 0.0021 | 0.5622 ± 0.0037 | 0.531 ± 0.0059 | 0.5023 ± 0.0027 | 0.49053 ± 9.2e-06
0.1 µM, coculture fibroblast: H6013 | 0.745 ± 0.073 | 0.674 ± 0.076 | 0.648 ± 0.09 | 0.641 ± 0.098 | 0.585 ± 0.12 | 0.584 ± 0.12 | 0.548 ± 0.11 | 0.526 ± 0.11 | 0.507 ± 0.11
0.1 µM, coculture fibroblast: H6019 | 0.801 ± 0.049 | 0.736 ± 0.096 | 0.696 ± 0.13 | 0.633 ± 0.16 | 0.594 ± 0.17 | 0.564 ± 0.17 | 0.515 ± 0.17 | 0.474 ± 0.17 | 0.435 ± 0.15
0.1 µM, coculture fibroblast: H6076 | 0.7979 ± 0.002 | 0.761 ± 0.038 | 0.741 ± 0.016 | 0.717 ± 0.04 | 0.67036 ± 1.7e-05 | 0.664 ± 0.018 | 0.638 ± 0.024 | 0.615 ± 0.036 | 0.622 ± 0.054
0.1 µM, coculture fibroblast: H6231 | 0.794 ± 0.021 | 0.784 ± 0.066 | 0.707 ± 0.04 | 0.59 ± 0.016 | 0.598 ± 0.043 | 0.566 ± 0.036 | 0.526 ± 0.043 | 0.492 ± 0.044 | 0.472 ± 0.035
0.1 µM, coculture fibroblast: HADF | 0.695 ± 0.031 | 0.621 ± 0.026 | 0.58 ± 0.035 | 0.577 ± 0.039 | 0.482 ± 0.035 | 0.461 ± 0.031 | 0.428 ± 0.031 | 0.404 ± 0.023 | 0.401 ± 0.025
0.1 µM, coculture fibroblast: HCFa | 0.763 ± 0.018 | 0.682 ± 0.045 | 0.648 ± 0.041 | 0.63 ± 0.057 | 0.547 ± 0.073 | 0.518 ± 0.085 | 0.478 ± 0.088 | 0.451 ± 0.095 | 0.441 ± 0.11
0.1 µM, coculture fibroblast: HCPF | 0.7863 ± 0.0026 | 0.779 ± 0.036 | 0.735 ± 0.013 | 0.64 ± 0.011 | 0.6422 ± 0.0035 | 0.6202 ± 0.0042 | 0.5859 ± 0.0042 | 0.561 ± 0.0079 | 0.543 ± 0.012
0.1 µM, coculture fibroblast: HHSteC | 0.81 ± 0.043 | 0.716 ± 0.062 | 0.681 ± 0.06 | 0.644 ± 0.067 | 0.567 ± 0.093 | 0.533 ± 0.11 | 0.491 ± 0.1 | 0.463 ± 0.093 | 0.427 ± 0.097
0.1 µM, coculture fibroblast: HMF | 0.7762 ± 0.0061 | 0.81588 ± 0.00014 | 0.742 ± 0.011 | 0.639 ± 0.0077 | 0.646 ± 0.013 | 0.614 ± 0.0063 | 0.572 ± 0.0063 | 0.539 ± 0.0089 | 0.515 ± 0.0082
0.1 µM, coculture fibroblast: HPFa | 0.9175 ± 0.0052 | 0.8337 ± 0.003 | 0.8098 ± 0.0014 | 0.716 ± 0.015 | 0.663 ± 0.018 | 0.632 ± 0.027 | 0.579 ± 0.024 | 0.532 ± 0.029 | 0.494 ± 0.024
0.1 µM, coculture fibroblast: HUF | 0.862 ± 0.015 | 0.785 ± 0.026 | 0.742 ± 0.043 | 0.678 ± 0.065 | 0.634 ± 0.086 | 0.603 ± 0.1 | 0.563 ± 0.11 | 0.541 ± 0.13 | 0.518 ± 0.14
0.1 µM, coculture fibroblast: Hs5 | 0.852 ± 0.011 | 0.833 ± 0.012 | 0.792 ± 0.019 | 0.775 ± 0.015 | 0.708 ± 0.0083 | 0.682 ± 0.014 | 0.655 ± 0.028 | 0.627 ± 0.032 | 0.632 ± 0.029
0.1 µM, coculture fibroblast: Hs27A | 0.712 ± 0.013 | 0.647 ± 0.024 | 0.615 ± 0.012 | 0.63 ± 0.01 | 0.512 ± 0.014 | 0.513 ± 0.026 | 0.472 ± 0.027 | 0.446 ± 0.03 | 0.439 ± 0.017
0.1 µM, coculture fibroblast: Hs343T | 0.8087 ± 0.0073 | 0.83 ± 0.026 | 0.774 ± 0.015 | 0.667 ± 0.0098 | 0.6553 ± 0.0015 | 0.627 ± 0.015 | 0.585 ± 0.0066 | 0.561 ± 0.013 | 0.528 ± 0.0063
0.1 µM, coculture fibroblast: WS1 | 0.799 ± 0.034 | 0.72 ± 0.02 | 0.661 ± 0.028 | 0.58 ± 0.033 | 0.517 ± 0.022 | 0.4729 ± 0.0012 | 0.436 ± 0.00066 | 0.407 ± 0.0024 | 0.389 ± 0.012
1 µM, coculture fibroblast: C12385 | 0.8165 ± 0.0037 | 0.748 ± 0.015 | 0.697 ± 0.012 | 0.646 ± 0.025 | 0.579 ± 0.026 | 0.547 ± 0.018 | 0.523 ± 0.034 | 0.478 ± 0.043 | 0.461 ± 0.046
1 µM, coculture fibroblast: H6013 | 0.7534 ± 0.0021 | 0.69066 ± 5.9e-05 | 0.6535 ± 0.0022 | 0.6354 ± 0.0049 | 0.58487 ± 0.00052 | 0.586 ± 0.012 | 0.55 ± 0.015 | 0.53 ± 0.015 | 0.487 ± 0.011
1 µM, coculture fibroblast: H6019 | 0.8075 ± 0.0057 | 0.738 ± 0.0099 | 0.705 ± 0.028 | 0.648 ± 0.036 | 0.608 ± 0.045 | 0.594 ± 0.048 | 0.551 ± 0.056 | 0.509 ± 0.06 | 0.474 ± 0.06
1 µM, coculture fibroblast: H6076 | 0.818 ± 0.021 | 0.812 ± 0.016 | 0.798 ± 0.029 | 0.77 ± 0.049 | 0.732 ± 0.047 | 0.722 ± 0.064 | 0.703 ± 0.065 | 0.681 ± 0.074 | 0.683 ± 0.076
1 µM, coculture fibroblast: H6231 | 0.833 ± 0.04 | 0.842 ± 0.046 | 0.802 ± 0.1 | 0.757 ± 0.14 | 0.74 ± 0.12 | 0.724 ± 0.14 | 0.689 ± 0.13 | 0.659 ± 0.12 | 0.644 ± 0.11
1 µM, coculture fibroblast: HADF | 0.697 ± 0.013 | 0.638 ± 0.014 | 0.608 ± 0.018 | 0.608 ± 0.022 | 0.525 ± 0.014 | 0.51382 ± 4.1e-05 | 0.479 ± 0.0085 | 0.461 ± 0.0054 | 0.444 ± 0.0052
1 µM, coculture fibroblast: HCFa | 0.757 ± 0.0097 | 0.682 ± 0.0081 | 0.64 ± 0.029 | 0.629 ± 0.039 | 0.547 ± 0.05 | 0.529 ± 0.054 | 0.487 ± 0.065 | 0.46 ± 0.07 | 0.434 ± 0.077
1 µM, coculture fibroblast: HCPF | 0.805 ± 0.024 | 0.776 ± 0.032 | 0.737 ± 0.04 | 0.67 ± 0.039 | 0.66 ± 0.052 | 0.622 ± 0.055 | 0.6 ± 0.055 | 0.571 ± 0.059 | 0.563 ± 0.069
1 µM, coculture fibroblast: HHSteC | 0.813 ± 0.013 | 0.745 ± 0.011 | 0.708 ± 0.015 | 0.6727 ± 0.0043 | 0.602 ± 0.015 | 0.59 ± 0.022 | 0.547 ± 0.025 | 0.525 ± 0.03 | 0.48 ± 0.027
1 µM, coculture fibroblast: HMF | 0.803 ± 0.014 | 0.8244 ± 0.0075 | 0.7521 ± 0.0066 | 0.668 ± 0.025 | 0.657 ± 0.013 | 0.618 ± 0.013 | 0.589 ± 0.015 | 0.57 ± 0.024 | 0.547 ± 0.031
1 µM, coculture fibroblast: HPFa | 0.8845 ± 0.0052 | 0.78984 ± 0.00057 | 0.7545 ± 0.0068 | 0.656 ± 0.024 | 0.599 ± 0.028 | 0.576 ± 0.037 | 0.524 ± 0.042 | 0.488 ± 0.042 | 0.445 ± 0.047
1 µM, coculture fibroblast: HUF | 0.889 ± 0.029 | 0.825 ± 0.053 | 0.788 ± 0.08 | 0.722 ± 0.098 | 0.677 ± 0.11 | 0.665 ± 0.12 | 0.624 ± 0.13 | 0.603 ± 0.14 | 0.581 ± 0.15
1 µM, coculture fibroblast: Hs5 | 0.838 ± 0.013 | 0.85 ± 0.018 | 0.803 ± 0.02 | 0.764 ± 0.022 | 0.693 ± 0.023 | 0.661 ± 0.031 | 0.645 ± 0.041 | 0.627 ± 0.05 | 0.619 ± 0.039
1 µM, coculture fibroblast: Hs27A | 0.706 ± 0.043 | 0.66 ± 0.02 | 0.625 ± 0.015 | 0.641 ± 0.017 | 0.543 ± 0.013 | 0.545 ± 0.021 | 0.521 ± 0.027 | 0.512 ± 0.029 | 0.497 ± 0.031
1 µM, coculture fibroblast: Hs343T | 0.8026 ± 0.0031 | 0.8131 ± 0.0015 | 0.7563 ± 0.0048 | 0.6751 ± 0.003 | 0.6489 ± 0.0014 | 0.60451 ± 0.00033 | 0.559 ± 0.0085 | 0.5343 ± 0.0045 | 0.505 ± 0.02
1 µM, coculture fibroblast: WS1 | 0.829 ± 0.023 | 0.767 ± 0.046 | 0.729 ± 0.041 | 0.656 ± 0.046 | 0.605 ± 0.041 | 0.568 ± 0.051 | 0.531 ± 0.044 | 0.505 ± 0.035 | 0.473 ± 0.033
